Experimental data taken from paper PMC3629208.
No constants are given. Whether binding was seen depends on the method and setting. Binding seen in cells or lysates may run through a third protein. Some results given as binding are weak or reduced against the parent protein; the word gives no strength.

Protein sequences, listed by entry. Tags and fused reporters are not part of them.
UniProt P31750: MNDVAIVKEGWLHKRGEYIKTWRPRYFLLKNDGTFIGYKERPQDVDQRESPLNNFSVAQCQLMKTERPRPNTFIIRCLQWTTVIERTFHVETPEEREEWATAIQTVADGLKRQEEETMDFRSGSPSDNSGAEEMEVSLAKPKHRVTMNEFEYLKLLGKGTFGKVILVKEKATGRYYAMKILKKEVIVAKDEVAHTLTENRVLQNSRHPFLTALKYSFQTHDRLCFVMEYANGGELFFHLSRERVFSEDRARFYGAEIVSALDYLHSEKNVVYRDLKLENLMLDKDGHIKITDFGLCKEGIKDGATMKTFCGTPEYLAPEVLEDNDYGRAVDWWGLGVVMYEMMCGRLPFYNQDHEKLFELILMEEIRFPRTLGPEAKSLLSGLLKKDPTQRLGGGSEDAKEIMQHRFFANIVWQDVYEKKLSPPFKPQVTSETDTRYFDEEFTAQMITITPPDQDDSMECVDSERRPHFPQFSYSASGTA
UniProt P63085: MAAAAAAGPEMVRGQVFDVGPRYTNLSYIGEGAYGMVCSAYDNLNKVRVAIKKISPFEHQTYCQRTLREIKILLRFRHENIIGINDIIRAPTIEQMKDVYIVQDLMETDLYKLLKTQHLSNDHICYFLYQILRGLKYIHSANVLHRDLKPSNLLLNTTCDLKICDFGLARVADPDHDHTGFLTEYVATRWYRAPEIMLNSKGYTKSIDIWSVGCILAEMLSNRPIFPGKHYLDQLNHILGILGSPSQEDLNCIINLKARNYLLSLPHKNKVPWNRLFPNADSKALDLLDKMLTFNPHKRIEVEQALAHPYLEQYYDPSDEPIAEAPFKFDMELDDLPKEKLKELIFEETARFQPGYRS
UniProt O35685: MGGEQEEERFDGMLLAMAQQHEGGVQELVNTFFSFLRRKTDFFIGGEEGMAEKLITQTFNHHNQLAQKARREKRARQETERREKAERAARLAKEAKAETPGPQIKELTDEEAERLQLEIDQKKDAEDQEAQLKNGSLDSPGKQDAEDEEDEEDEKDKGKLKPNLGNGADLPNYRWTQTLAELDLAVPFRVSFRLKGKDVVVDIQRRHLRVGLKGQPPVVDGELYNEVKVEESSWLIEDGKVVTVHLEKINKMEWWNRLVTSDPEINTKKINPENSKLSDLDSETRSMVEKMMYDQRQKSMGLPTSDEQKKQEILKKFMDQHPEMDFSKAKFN

Key:
[1] = biological target: Akt (protein kinase B), Akt1 (mouse (endogenous in Neuro 2A)) (UniProt P31750); assay: co-IP; two-step crosslinking co-IP (DSS-fixed anti-Akt antibody, DSP-crosslinking of the bound complexes) from Neuro 2A lysate, western blot; cells with or without IGF-1 (10 ng/mL, 10 min); band intensity normalized to Akt level
[2] = biological target: Akt (protein kinase B), Akt1 (mouse (endogenous in Neuro 2A)) (UniProt P31750); assay: co-IP; anti-Akt antibody fixed on the beads by DSS, without DSP-crosslinking, Neuro 2A lysate (control or IGF-stimulated), western blot

| Substance | binding [1] | binding [2] |
| --- | --- | --- |
| extracellular regulated kinase-1 and -2 (ERK1/2) (from UniProt P63085 1-358) | binds | binds |
| nuclear distribution gene C (Nudc, also named nuclear migration gene C) (from UniProt O35685 1-332) | binds | – |
